# Measured values: PubChem BioAssay AID540256 (National Center for Advancing Translational Sciences (NCATS), 2011)
# Out of some 300,000 compounds screened, about 3,700 (1.2%) were called active. The inconclusive results got no clear call from the source; some entries with a clear call stand among them for comparison. Calls follow the shape of the full dose curve; tested in HEK293 cells. A potency beside an inconclusive call is a rough fit, not a confirmed value.
# Assay: qHTS for Inhibitors of binding or entry into cells for Lassa Virus; also: nearly all actives have a fitted effect of over 50% in size
# Details: Lassa virus pseudotype entry inhibition, cell reporter; series mostly up to 37.9 µM
# Potency is read from the fitted curve at half-maximal effect.
row,Compound,Potency
1,COc1cc(C(=O)Nc2nnc(S(=O)(=O)N(C)c3ccccc3)s2)cc(OC)c1OC,inactive
2,O=[N+]([O-])c1ccc2cn[nH]c2c1,inactive
3,Cn1c(CO)cnc1SCC(=O)c1ccc(Br)cc1,"inconclusive: 35.5 µM [inhibitor, single point]"
4,CN(C)/C=N/C(=S)Nc1ccccc1F,inactive
5,CCCCCC(=O)N/N=C(\C)c1ccccn1,"inconclusive: 11.2 µM [inhibitor, single point]"
6,CCOc1ccc2nc(Cl)c(C3CC(c4ccco4)=NN3S(C)(=O)=O)cc2c1 (configuration not stated),"inconclusive: 7.08 µM [inhibitor, partial curve, poor fit]"
7,COc1ccc(CN(Cc2cc3ccc(C)cc3[nH]c2=O)Cc2nnnn2C2CCCC2)cc1,"inconclusive: 20.6 µM [inhibitor, single point]"
8,CCCSc1nc2sc3c(c2c(=O)n1-c1ccccc1)CCC(C)C3 (configuration not stated),"inconclusive: 28.2 µM [inhibitor, single point]"
9,CCOC(=O)c1ccc(N=Cc2c(O)n(-c3ccccc3F)c(=S)[nH]c2=O)cc1,inactive
10,O=C(CSc1nnc(Cn2nnc3ccccc32)o1)Nc1cccc(Cl)c1,inactive
11,COc1cc2nc(CN3CCN(S(=O)(=O)c4ccccc4C(F)(F)F)CC3)[nH]c(=O)c2cc1OC,"inconclusive: 3.16 µM [inhibitor, single point]"
12,O=C(Cc1ccccc1)NC(=S)Nc1ccc2oc(-c3ccccc3F)nc2c1,"inconclusive: 1.58 µM [activator, full curve, poor fit]"
13,Cc1nn(C(=O)c2ccc(Cl)cc2)c(C)c1Sc1ccc(Cl)cc1,inactive
14,c1ccc(C2OC3c4cccc5cccc(c45)C3N2c2ccccc2)cc1 (configuration not stated),"inconclusive: 32.6 µM [inhibitor, partial curve, poor fit]"
15,CC(Nc1ccccc1CO)C(=O)Nc1cccc(Cl)c1Cl (configuration not stated),"inconclusive: 7.08 µM [inhibitor, full curve, poor fit]"
16,COc1cc2nc(SCc3ccc(Cl)cc3)n3nc(CCn4nc(C)cc4C)nc3c2cc1OC,"inconclusive: 3.16 µM [inhibitor, single point]"
17,Cc1ccc(C)c(-c2nnc(NC(=O)c3ccc([N+](=O)[O-])o3)o2)c1,"inconclusive: 22.4 µM [inhibitor, single point]"
18,O=C(Nc1nccs1)[C@@H]1CCCN1S(=O)(=O)c1ccccc1F,"inconclusive: 0.794 µM [activator, single point]"
19,N#CC1=C(N)Oc2cc(N)ccc2C1c1ccccc1F (configuration not stated),"inconclusive: 0.112 µM [inhibitor, full curve, poor fit]"
20,COC(=O)c1ccc(OCC2c3cc(OC)c(OC)cc3CCN2C(=O)C2CC2)cc1 (configuration not stated),"inconclusive: 5.17 µM [inhibitor, partial curve, poor fit]"
21,C[C@@H]1O[C@@H](O[C@H]2C[C@@H](O)[C@]3(CO)[C@H]4[C@H](O)C[C@]5(C)[C@@H](C6COC(=O)C6)CC[C@]5(O)[C@@H]4CC[C@]3(O)C2)[C@H](O)[C@H](O)[C@H]1O (some centres not stated),active: 1.64 µM

row,Compound,Potency
1,COC(=O)c1cccc(NC(=O)C2CCN(S(=O)(=O)Cc3ccccc3)CC2)c1C,inactive
2,Cc1ccc(C(=O)NC(C)c2ccc(F)cc2)cc1 (configuration not stated),inactive
3,NC(=O)c1c(NC(=O)c2cccnc2)sc2c1CCCC2,"inconclusive: 7.08 µM [activator, partial curve, poor fit]"
4,COc1cccc(CNC(=O)CN2C(=O)N(c3cc(C)ccc3C)S(=O)(=O)c3ccccc32)c1OC,"inconclusive: 35.5 µM [inhibitor, single point]"
5,CCC(C)(C)n1nnnc1C(c1ccc2ncccc2c1)N1CCN(Cc2ccc3c(c2)OCO3)CC1 (configuration not stated),"inconclusive: 3.66 µM [inhibitor, partial curve, poor fit]"
6,Cc1ccnc(N/C=C(\C#N)c2nc(-c3cccc(Br)c3)cs2)c1,"inconclusive: 32.6 µM [inhibitor, single point]"
7,COc1ccc2nc(N3CCOCC3)cc(C)c2c1,"inconclusive: 16.4 µM [inhibitor, partial curve, poor fit]"
8,CCOc1ccc(C(=O)NCCC(=O)NCCCC(=O)O)cc1,"inconclusive: 20.6 µM [activator, single point]"
9,COC(=O)c1ccccc1NC(=O)N1CCCC1,"inconclusive: 0.231 µM [inhibitor, partial curve, poor fit]"
10,CCn1cc(CNC(=O)c2c(-c3c(Cl)cccc3Cl)noc2C)c(C)n1,inactive
11,COc1ccc(CNC(=O)c2cc3c(-c4ccccc4F)nn(C)c3s2)c(OC)c1,"inconclusive: 35.5 µM [inhibitor, single point]"
12,CCOc1ccc(N2CC(C(=O)N3CCN(C(=O)c4ccco4)CC3)CC2=O)cc1 (configuration not stated),"inconclusive: 1.41 µM [inhibitor, partial curve, poor fit]"
13,Cc1ccc(-n2c(C)c3c(C)nnc(C)c3c2C)cc1C,"inconclusive: 11.6 µM [inhibitor, single point]"
14,CC(C)c1ccccc1-n1c(SCC(=O)N2CCc3ccccc3C2)nc2ccccc2c1=O,"inconclusive: 25.9 µM [inhibitor, single point]"
15,CCOC(=O)Cn1nnc2c(sc3nc4c(c(-c5ccc(Cl)cc5)c32)CCC4)c1=O,"inconclusive: 10 µM [inhibitor, partial curve, poor fit]"
16,Cc1ccc(CNC(=O)CCCn2c(=O)c3ccccc3n(CC(=O)C(C)(C)C)c2=O)cc1,"inconclusive: 10 µM [inhibitor, partial curve, poor fit]"
17,OCCNC1=NCCN1,inactive
18,COC(=O)c1ccc(/C=N/NC(=O)CC(=O)NC2CCCCC2)cc1,inactive
19,Cc1cc(O)c(C(C[N+](=O)[O-])c2ccc(Cl)cc2Cl)c(=O)o1 (configuration not stated),inactive
20,CCOc1ccc(C2c3[nH]c4ccccc4c3CCN2C(=O)Cn2cncn2)cc1 (configuration not stated),"inconclusive: 35.5 µM [inhibitor, single point]"
21,CCC1=Nc2cc(C(=O)NCc3ccco3)ccc2Sc2ccc(C)cc21,"inconclusive: 6.31 µM [inhibitor, partial curve, poor fit]"

# Structures from the list above with bromine, in the order listed:
row,Compound,Potency
3,Cn1c(CO)cnc1SCC(=O)c1ccc(Br)cc1,"inconclusive: 35.5 µM [inhibitor, single point]"
6,Cc1ccnc(N/C=C(\C#N)c2nc(-c3cccc(Br)c3)cs2)c1,"inconclusive: 32.6 µM [inhibitor, single point]"
